{"source": "patent US20150065417", "about": "(published 2015)", "assay": "peptide synthesis", "settings": "purification step", "data": [{"substance": "Micafungin sodium", "values": [{"measurement": "final HPLC purity", "setting": "sodium, run 1", "value": 99.88, "unit": "%"}, {"measurement": "final HPLC purity", "setting": "sodium, run 2", "value": 96.29, "unit": "%"}, {"measurement": "final HPLC purity", "setting": "run 1", "value": 99.00, "unit": "%"}, {"measurement": "final HPLC purity", "setting": "run 2", "value": 96.17, "unit": "%"}, {"measurement": "final HPLC purity", "setting": "run 3", "value": 99.40, "unit": "%"}, {"measurement": "final HPLC purity", "setting": "run 4", "value": 96.16, "unit": "%"}, {"measurement": "final HPLC purity", "setting": "run 5", "value": 99.79, "unit": "%"}, {"measurement": "final HPLC purity", "setting": "run 6", "value": 96.29, "unit": "%"}, {"measurement": "final HPLC purity", "setting": "run 7", "value": 99.88, "unit": "%"}, {"measurement": "step yield", "setting": "sodium", "value": 82.7, "unit": "%"}, {"measurement": "step yield", "setting": "run 1", "value": 93, "unit": "%"}, {"measurement": "step yield", "setting": "run 2", "value": 91, "unit": "%"}, {"measurement": "step yield", "setting": "run 3", "value": 93.9, "unit": "%"}, {"measurement": "step yield", "setting": "run 4", "value": 86.1, "unit": "%"}, {"measurement": "step yield", "setting": "run 5", "value": 91.1, "unit": "%"}, {"measurement": "step yield", "setting": "run 6", "value": 82.1, "unit": "%"}, {"measurement": "step yield", "setting": "run 7", "value": 88.5, "unit": "%"}]}]}
